PubChem BioAssay AID1259308, NCATS – 2017

Assay: 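Knock-downs that increase output of a recombinant reporter protein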 (primary screen)
Cells: human HEK293 embryonic kidney cells stably expressing firefly luciferase (HEK-CMV-Luc2-Hygro)
Reagent: single siRNA against human genes, 0.8 pmol siRNA per well
Time to read-out: 72 h
Measured: 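Reporter luminescence and viable-cell signal on separate replicate plates, given as percent of non-targeting control and median/MAD z-scores, plus per-cell luciferase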
Reading the numbers: total luciferase, z-score and total luciferase, % of control: higher = more reporter protein produced; luciferase per cell, z-score: higher = more reporter output per viable cell; viable cells, % of control: higher = more viable cells
Rule for the call: 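Active when the median/MAD z-score for overall luciferase is greater than 3; a gene was taken forward for validation with new siRNAs if at least two of its three siRNAs passed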
Calls: active = raised luciferase; inactive = no rise
Shown is a random part of about 59,000 reagents tested. About 1,510 of them (2.6%) count as active. 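Calls use total luciferase alone and ignore viability, so some active siRNAs may act by altering cell number.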 Reagents against one gene are numbered here. No sequences are given here.

The first 4 entries as a preview:
gene symbol	reagent no.	total luciferase, z-score	total luciferase, % of control	luciferase per cell, z-score	viable cells, % of control	outcome
ARHGEF39 (Rho guanine nucleotide exchange factor 39)	1	-0.41	73.7	-0.595	96.4	inactive
ARHGEF39 (Rho guanine nucleotide exchange factor 39)	2	-0.00463	81.8	0.106	88.9	inactive
ARHGEF39 (Rho guanine nucleotide exchange factor 39)	3	-1.62	49.7	-1.8	89.1	inactive
CRIPT (CXXC repeat containing interactor of PDZ3 domain)	1	-0.198	77.9	0.901	68.7	inactive

Results, from the start:
gene symbol	reagent no.	total luciferase, z-score	total luciferase, % of control	luciferase per cell, z-score	viable cells, % of control	outcome
ARHGEF39 (Rho guanine nucleotide exchange factor 39)	1	-0.41	73.7	-0.595	96.4	inactive
ARHGEF39 (Rho guanine nucleotide exchange factor 39)	2	-0.00463	81.8	0.106	88.9	inactive
ARHGEF39 (Rho guanine nucleotide exchange factor 39)	3	-1.62	49.7	-1.8	89.1	inactive
CRIPT (CXXC repeat containing interactor of PDZ3 domain)	1	-0.198	77.9	0.901	68.7	inactive
CRIPT (CXXC repeat containing interactor of PDZ3 domain)	2	-0.306	75.8	-0.479	96.1	inactive
CRIPT (CXXC repeat containing interactor of PDZ3 domain)	3	-0.334	75.2	-0.335	91.8	inactive
C2orf92 (chromosome 2 open reading frame 92)	1	0.284	87.5	-0.0106	98.1	inactive
C2orf92 (chromosome 2 open reading frame 92)	2	-0.909	63.8	0.442	63.5	inactive
C2orf92 (chromosome 2 open reading frame 92)	3	-1.17	58.6	-0.274	70.3	inactive
JMY (junction mediating and regulatory protein, p53 cofactor)	1	-0.501	71.9	0.732	66.3	inactive
JMY (junction mediating and regulatory protein, p53 cofactor)	2	-0.107	79.8	-0.668	106	inactive
JMY (junction mediating and regulatory protein, p53 cofactor)	3	2.83	138	1.82	95.7	inactive
RNF113A (ring finger protein 113A)	1	0.287	87.6	0.0372	96.9	inactive
RNF113A (ring finger protein 113A)	2	1.25	107	0.911	93.9	inactive
RNF113A (ring finger protein 113A)	3	-0.892	64.1	-0.236	76.3	inactive
AKT1S1 (AKT1 substrate 1)	1	0.117	84.2	-0.0738	96	inactive
AKT1S1 (AKT1 substrate 1)	2	0.817	98.1	0.152	105	inactive
AKT1S1 (AKT1 substrate 1)	3	-0.428	73.4	-0.743	99.7	inactive
WDR31 (WD repeat domain 31)	1	-1.07	60.6	-0.674	80.9	inactive
WDR31 (WD repeat domain 31)	2	0.322	88.3	0.288	91.5	inactive
WDR31 (WD repeat domain 31)	3	-0.64	69.1	-0.808	95.6	inactive
SLC5A1	1	0.184	85.5	0.305	88.2	inactive
SLC5A1	2	-0.213	77.7	0.203	82.3	inactive
SLC5A1	3	2.63	134	1.63	97.6	inactive
CHST11 (carbohydrate sulfotransferase 11)	1	1.08	103	1.02	88.3	inactive
CHST11 (carbohydrate sulfotransferase 11)	2	-0.122	79.5	0.437	79.1	inactive
CHST11 (carbohydrate sulfotransferase 11)	3	-0.401	73.9	-0.393	91.6	inactive
HAT1 (histone acetyltransferase 1)	1	-0.971	62.6	-1.35	99.7	inactive
HAT1 (histone acetyltransferase 1)	2	-0.334	75.2	-0.00742	84.2	inactive
HAT1 (histone acetyltransferase 1)	3	-0.512	71.7	-0.75	97.6	inactive
DIPK2A (divergent protein kinase domain 2A)	1	-0.165	78.6	-0.235	93.4	inactive
DIPK2A (divergent protein kinase domain 2A)	2	2.17	125	1.2	102	inactive
DIPK2A (divergent protein kinase domain 2A)	3	-0.225	77.4	-0.00906	86.7	inactive
PIGQ (phosphatidylinositol glycan anchor biosynthesis class Q)	1	1.7	116	0.577	111	inactive
PIGQ (phosphatidylinositol glycan anchor biosynthesis class Q)	2	-1.01	61.9	-0.826	86	inactive
PIGQ (phosphatidylinositol glycan anchor biosynthesis class Q)	3	0.255	87	-0.444	109	inactive
ZNF534 (zinc finger protein 534)	1	1.12	104	0.735	95.9	inactive
ZNF534 (zinc finger protein 534)	2	1.74	116	2.01	76.7	inactive
ZNF534 (zinc finger protein 534)	3	1.91	120	2.11	76.9	inactive
